Source: publication PMC11872463, “Identification of a group of 9-amino-acridines that selectively downregulate regulatory T cell functions through FoxP3” (iScience, 2025)

Amino acid sequences for entries named in this document (tags omitted). Residues count along the entry.
UniProt Q9BZS1, 182-421, stated change not applied: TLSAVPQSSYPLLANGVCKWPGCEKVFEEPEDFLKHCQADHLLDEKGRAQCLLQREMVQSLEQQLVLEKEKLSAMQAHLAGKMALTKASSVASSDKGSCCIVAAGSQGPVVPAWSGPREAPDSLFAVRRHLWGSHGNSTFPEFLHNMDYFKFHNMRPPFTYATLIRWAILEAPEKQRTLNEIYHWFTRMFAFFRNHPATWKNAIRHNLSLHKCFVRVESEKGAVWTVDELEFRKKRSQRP

Experiments:
[1] = biological target: His-FoxP3-ΔN (Homo sapiens) (UniProt Q9BZS1); test: EMSA; settings: EMSA: 10 mM Tris pH 7.5, 100 mM KCl, 1 mM EDTA, 0.1 mM DTT, 5% glycerol, 0.010 mg/mL BSA, room temperature 30 min, recombinant protein, residues 182-421, protein details: His (pET-30a)
[2] = biological target: His-FoxP3-ΔN (Homo sapiens) (UniProt Q9BZS1); test: AlphaScreen; settings: 5'-biotin on strand 1, AlphaScreen: room temperature, buffer composition not stated, recombinant protein, residues 182-421, protein details: His (pET-30a), label: biotin

Q: Does “AGATAAACAAGTGTAAACAAT (double strand) [DRE3]” bind ([1]; MP4, concentration-dependent interference)?
A: binds more weakly

Q: Does “AGATAAACAAGTGTAAACAAT (double strand) [DRE3]” bind ([1]; no compound, 3 ug protein, 20 nM DNA)?
A: binds

Q: Does “AGATAAACAAGTGTAAACAAT (double strand) [DRE3]” bind ([1]; quinacrine (QDD), concentration-dependent interference)?
A: binds more weakly

Q: “TGACAGTCAGCAAGGTAAACAAGAGTAAACAAGTCCTGAGTCAGT (double strand) [AlphaScreen FoxP3 DNA]” was tested. Which IC50 ([2]; MP4, IC50 is of the compound inhibiting protein-DNA binding) did it give?
A: 370 nM

Q: Does “TGACAGTCAGCAAGGTAAACAAGAGTAAACAAGTCCTGAGTCAGT (double strand) [AlphaScreen FoxP3 DNA]” bind ([2]; no compound, protein:DNA 2:1)?
A: binds

Q: What about the IC50 ([2]; quinacrine (QDD), IC50 is of the compound inhibiting protein-DNA binding) of the same sequence?
A: 2000 nM

The exact form of at least one protein or probe is not confirmed. For part of these data: The comparison behind a weaker result is the experiment's own reference, which may not be listed here. At least one verdict rests on a figure or table, not on a statement of the authors.
